Assay results from US20060183130A1 (VANDERBILT UNIVERSITY, published 2006).

Amino acid sequences for entries named in this document (tags omitted). A change or cut given only in a name is not applied to a line headed by its entry.
UniProt P01108: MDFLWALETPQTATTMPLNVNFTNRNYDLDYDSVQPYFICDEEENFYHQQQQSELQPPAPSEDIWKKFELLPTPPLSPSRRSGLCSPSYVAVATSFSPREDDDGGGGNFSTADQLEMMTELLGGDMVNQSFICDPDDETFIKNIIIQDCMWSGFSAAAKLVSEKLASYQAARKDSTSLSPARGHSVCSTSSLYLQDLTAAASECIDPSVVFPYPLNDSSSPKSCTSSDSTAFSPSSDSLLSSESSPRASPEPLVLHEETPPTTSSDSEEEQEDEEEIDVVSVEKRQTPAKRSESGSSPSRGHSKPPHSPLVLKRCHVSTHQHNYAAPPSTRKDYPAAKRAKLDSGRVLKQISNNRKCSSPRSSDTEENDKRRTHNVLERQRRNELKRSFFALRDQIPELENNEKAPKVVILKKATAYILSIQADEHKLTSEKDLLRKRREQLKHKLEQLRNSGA

Biological target: T1, mouse p19ARF (murine p19Arf) (mouse) (UniProt Q64364)
T1 sequence: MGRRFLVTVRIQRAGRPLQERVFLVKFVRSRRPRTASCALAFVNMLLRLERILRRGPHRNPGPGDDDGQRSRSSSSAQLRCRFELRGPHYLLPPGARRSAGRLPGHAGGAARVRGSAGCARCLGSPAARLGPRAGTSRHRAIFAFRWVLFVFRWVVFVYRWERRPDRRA
Assay: co-IP with anti-ARF from transfected Cos-7 cells, immunoblot (FIG. 2E, right panel)

binding: binds
Substance: c-Myc 1-144 (from UniProt P01108)

Results are given in words; binding and its absence hold for the method and conditions named. In cells and extracts the contact can be indirect. Binding can be weak; no strength is given.
